These are yes or no findings as the source states them, for the method shown. In cells and extracts the contact can be indirect. Some results given as binding are weak or reduced against the parent protein; the word gives no strength.
Tests used:
[1] = target: KRAS protein of NCI-H441 lung adenocarcinoma cells (KRAS G12V mutant) (human) (UniProt P01116); experiment: co-immunoprecipitation: NCI-H441 cells treated with 25 µM biotinylated pept-in overnight, streptavidin-coated beads, KRAS Western blot
[2] = target: KRAS G12C mutant, produced by in vitro translation (human) (UniProt P01116); experiment: in vitro translation of KRAS with biotinylated pept-in, streptavidin pull-down, KRAS Western blot (FIG. 6 legend)
[3] = target: KRAS G12V mutant, produced by in vitro translation (human) (UniProt P01116); experiment: as above
[4] = target: KRAS G12C mutant, produced by in vitro translation (human) (UniProt P01116); experiment: in vitro translation of KRAS with 10 µM biotinylated pept-in, streptavidin pull-down, KRAS Western blot
[5] = target: KRAS G12V mutant, produced by in vitro translation (human) (UniProt P01116); experiment: as above
[6] = target: KRAS protein of NCI-H441 lung adenocarcinoma cells (KRAS G12V mutant) (human) (UniProt P01116); experiment: co-immunoprecipitation from NCI-H441 cells, streptavidin-coated beads, KRAS Western blot (FIG. 7 legend)
[7] = target: KRAS G12V expressed in RASless MEFs (human) (UniProt P01116); experiment: co-immunoprecipitation from RASless MEFs, streptavidin beads, KRAS Western blot (FIG. 11 legend)
[8] = target: KRAS G12V expressed in RASless MEFs (human) (UniProt P01116); experiment: co-immunoprecipitation: RASless MEFs treated with 25 µM biotinylated pept-in, streptavidin-coated beads, KRAS Western blot

Measured: binding

KVVVGAVGKGSKVVVGAVGK (N-terminally biotinylated; state of the C-terminus not stated for this version) [04-015-N026, biotinylated version of pept-in 04-015-N001]
binds: all assays above

KVVVGAVGVGKGSKVVVGAVGVGK (N-terminally biotinylated; state of the C-terminus not stated for this version) [04-033-N003, biotinylated version of pept-in 04-033-N001]
not listed: [2] | [4]
binds: all other assays above

KVVVGAVKGSKVVVGAVK (N-terminally biotinylated; state of the C-terminus not stated for this version) [04-006-N007, biotinylated version of pept-in 04-006-N001]
not listed: [2] | [4]
binds: all other assays above

Reference: patent US20230100941A1, “MOLECULES TARGETING MUTANT RAS PROTEIN” (AELIN THERAPEUTICS, priority 2020, published 2023)
